# Results published in PubChem BioAssay AID1347076 (National Center for Advancing Translational Sciences (NCATS), 2019).
# Screen size: about 400,000 compounds; about 13,000 (3.2%) were called active. The shares of active, inactive and inconclusive entries below differ from those in the screen. Calls follow the shape of the dose curve; as a rule, active = well fitted cell-killing curve with a large enough effect; inconclusive = small, poorly fitted or top-dose-only effect, or effect the other way; inactive = flat fitted curve, though single readings scatter. Where the call is inconclusive, the potency comes from a doubtful curve fit.
# Experiment: qHTS assay for MDR1-selective chemotherapeutics: Primary screen using the drug-selected MDR subline cells KB-V1; also: nearly all actives have a fitted effect of over 60% in size
# Details: KB-V1 MDR cells viability, CellTiter-Glo, 72 h; activity change, negative = cytotoxicity: at 46.1 µM (top of the series)
# Method in brief: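 Cells of the MDR subline KB-V1 are plated, dosed with compound at multiple concentrations, and incubated 72 h at 37 degrees C; CellTiter-Glo is then added and luminescence read after 10 min.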
# % is scaled to controls: 0 for no effect and ±100 for the full control effect; potency is read from the fitted curve at half-maximal effect.
Structure (SMILES),Potency,"activity change, negative = cytotoxicity"
NC(Cc1ccc(C(F)(F)F)cc1)c1csc(Nc2nncc3ccccc23)n1 (stereo not drawn),active: 16.4 µM,–
O=C(O)c1ccccc1NC(=S)NC(=O)c1sc2ccccc2c1Cl,inactive,–
CC(=O)c1c(O)c2ccccc2n(C)c1=O,inactive,–
Cc1ccc(-c2nnc(SCc3ccccc3F)o2)cc1,"inconclusive: 23.1 µM [cytotoxic, single point]",–
CCN1CCN(c2cc3c(cc2F)c(=O)c(S(=O)(=O)c2ccccc2)cn3C)CC1,–,inconclusive: 26.4%
O=C(NCc1ccco1)c1cccc(N2CCCC2=O)c1,inactive,–
COc1nc(OCCNS(=O)(=O)c2ccc(C)cc2)nc(N(C)C)n1,"inconclusive: 9.2 µM [cytotoxic, partial curve, poor fit]",–
CCN(CC)S(=O)(=O)N1CCC(C(=O)NCC2COc3ccccc3O2)CC1 (stereo not drawn),"inconclusive: 20.6 µM [cytotoxic, single point]",–
COC(=O)c1cc(C(=O)c2ccc(C(C)(C)C)cc2)c[nH]1,"inconclusive: 29.1 µM [cytotoxic, single point]",–
Cc1ccc(C)c(CC(=O)N2CCCC(c3cc(C(=O)Nc4ccc5c(c4)OCO5)no3)C2)c1 (stereo not drawn),inactive,–
CC(Nc1ccc(S(=O)(=O)N2CCN(C)CC2)cc1[N+](=O)[O-])c1ccccc1 (stereo not drawn),"inconclusive: 25.9 µM [cytotoxic, partial curve, poor fit]",–
COc1cccc(C2CC(c3cccs3)=NN2S(C)(=O)=O)c1OC (stereo not drawn),"inconclusive: 18.4 µM [cytotoxic, single point]",–
COc1ccc(C(=O)N/C(=C\c2cn(C)c3ccccc23)C(=O)N2CCOCC2)cc1,inactive,–
CCCCN=c1scc(-c2ccc3c(c2)NC(=O)CO3)n1N=C1CCCC1,"inconclusive: 11.6 µM [cytotoxic, partial curve]",–
COc1ccc(S(=O)(=O)NC(=O)C2(C)CCN2C(=O)Cc2cc(C)cc(C)c2)cc1OC (stereo not drawn),inactive,–
CCNC(=O)C1(C)CCN(C(=O)c2cccc(Cl)c2)C1 (stereo not drawn),inactive,–
CCn1cc(CN(C)C(=O)CSc2nc(-c3ccco3)cc(C(F)(F)F)n2)c(C)n1,"inconclusive: 20.6 µM [cytotoxic, partial curve, poor fit]",–
Cc1sc(NC(=O)Cc2ccc3c(c2)OCO3)nc1-c1ccc2c(c1)CCN2C(=O)c1ccccc1F,"inconclusive: 5.8 µM [cytotoxic, full curve]",–
Cc1nn2c(-c3ccco3)ccnc2c1-c1ccc(F)cc1,"inconclusive: 6.51 µM [rising, partial curve]",–
CCNC(=O)C1CC(=O)OC12CCCCC2 (stereo not drawn),inactive,–
Cc1occc1C(=O)Nc1ccc(OCc2ccccc2)cc1,active: 16.4 µM,–
CCOC(=O)C1CCCN(CCC(=O)Nc2ccc(Br)cc2)C1 (stereo not drawn),inactive,–
O=[N+]([O-])c1ccc(C[n+]2cc(-c3ccccc3)n3c2CCCCC3)cc1,inactive,–
COc1ccccc1CNC(=O)c1ccc2c(c1)nc(C)n2-c1ccccc1OC,inactive,–

# Shown as tab-separated lines: 9 of the compounds above.
Structure (SMILES)	Potency	activity change, negative = cytotoxicity
CCNC(=O)C1(C)CCN(C(=O)c2cccc(Cl)c2)C1 (stereo not drawn)	inactive	–
CCn1cc(CN(C)C(=O)CSc2nc(-c3ccco3)cc(C(F)(F)F)n2)c(C)n1	inconclusive: 20.6 µM [cytotoxic, partial curve, poor fit]	–
Cc1sc(NC(=O)Cc2ccc3c(c2)OCO3)nc1-c1ccc2c(c1)CCN2C(=O)c1ccccc1F	inconclusive: 5.8 µM [cytotoxic, full curve]	–
Cc1nn2c(-c3ccco3)ccnc2c1-c1ccc(F)cc1	inconclusive: 6.51 µM [rising, partial curve]	–
CCNC(=O)C1CC(=O)OC12CCCCC2 (stereo not drawn)	inactive	–
Cc1occc1C(=O)Nc1ccc(OCc2ccccc2)cc1	active: 16.4 µM	–
CCOC(=O)C1CCCN(CCC(=O)Nc2ccc(Br)cc2)C1 (stereo not drawn)	inactive	–
O=[N+]([O-])c1ccc(C[n+]2cc(-c3ccccc3)n3c2CCCCC3)cc1	inactive	–
COc1ccccc1CNC(=O)c1ccc2c(c1)nc(C)n2-c1ccccc1OC	inactive	–

# (more compounds)

Structure (SMILES),Potency,"activity change, negative = cytotoxicity"
Cc1ccc(Cl)cc1Nc1nc(-c2sc(NC(=O)c3ccco3)nc2C)cs1,"inconclusive: 20.6 µM [cytotoxic, single point]",–
CCOC(=O)CNC(=O)c1cccnc1Oc1ccc(Cl)cc1,inactive,–
CC1CCc2c(nc3ncnn3c2Nc2ccc(OC(F)(F)F)cc2)C1 (stereo not drawn),"inconclusive: 23.1 µM [cytotoxic, partial curve, poor fit]",–
COc1cc(/C=N/NC(=O)C23CC4CC(CC(C4)C2)C3)cc(Br)c1O,inactive,–
O=C(NC1CCCCC1)N1CCN(CCc2ccccc2)CC1,active: 18.4 µM,–
COc1ccccc1NC(=O)CN1CCCN(S(=O)(=O)c2ccc(Br)cc2)CC1,inactive,–
O=C(CCCc1ccccc1)Nc1ccnn1C1CCN(Cc2ccccc2F)CC1,"inconclusive: 6.51 µM [cytotoxic, partial curve]",–
CCOc1ccc(NC(=O)Cn2c(C)cc3ccccc3c2=O)cc1,"inconclusive: 18.4 µM [rising, partial curve, poor fit]",–
Clc1ccc(-c2noc3c2-c2nc(Cc4cccc5ccccc45)sc2CC3)cc1,"inconclusive: 16.4 µM [cytotoxic, partial curve]",–
Cc1ccccc1Nc1nnc(SCC(=O)c2c(N)n(C)c(=O)n(C)c2=O)s1,inactive,–
CCN(C(=O)COC(=O)C1CC1C)c1c(N)n(Cc2ccccc2)c(=O)[nH]c1=O (stereo not drawn),inactive,–
Cc1cccc(CN2[C@@H](CC(C)C)COCCS2(=O)=O)c1,inactive,–
N#C/C(=C\C1=C(N2CCOCC2)C(=C\c2ccc(Cl)cc2)/CC1)C(=O)Nc1ccccc1F,inactive,–
CCOC(=O)c1c(NC(=O)CSc2nnnn2-c2ccc3c(c2)OCO3)sc(C)c1C,inactive,–
O=C(CNS(=O)(=O)c1ccc2ccccc2c1)Nc1ccc(F)c(F)c1F,"inconclusive: 29.1 µM [cytotoxic, single point]",–
COc1cc(C(=O)NNC(=S)NC(=O)/C=C/c2ccccc2)cc(OC)c1OC,"inconclusive: 23.1 µM [cytotoxic, partial curve, poor fit]",–
Cc1cc(CNC(=O)CC2C(=O)NCCN2Cc2ccccc2C(F)(F)F)on1 (stereo not drawn),inactive,–
CCOC(=O)[C@]12CCCC=C1N(Cc1ccc3c(c1)OCO3)C(=O)[C@H](CC(=O)N1CCSCC1)C2,"inconclusive: 0.0065 µM [cytotoxic, full curve, poor fit]",–
Cc1[nH]c2ccccc2c1C(=O)C(C)OC(=O)c1ccc(Cl)nc1 (stereo not drawn),"inconclusive: 20.6 µM [cytotoxic, single point]",–
CN1CCN(c2ccccc2NC(=O)COc2ccc(Br)cc2)CC1,active: 20.6 µM,–
Cc1ccc(S(=O)(=O)Nc2ccc(C(OC(=O)c3ccccc3[N+](=O)[O-])(C(F)(F)F)C(F)(F)F)cc2)cc1,active: 3.66 µM,–
COc1ccc(C2CCCCCN2C(=O)C2CCN(S(=O)(=O)c3cccc(C(C)=O)c3)CC2)cc1 (stereo not drawn),active: 18.4 µM,–
CCOC(=O)c1c(NC(=O)CSc2nnc(Cc3ccccc3)o2)sc(C(C)=O)c1C,active: 18.4 µM,–
CCOc1ccc(C2C([N+](=O)[O-])=C(C)N(C)C(=O)N2C)cc1OC (stereo not drawn),–,inconclusive: -36%
